Assay results taken from paper PMC11040210.
The exact form of at least one protein or probe is not confirmed.

Experiments:
[1] = tested on: BpNAC90 S205A (Betula platyphylla (birch)); test: EMSA; details: text: can still bind, abstract says decreased binding capability; EMSA: protein and biotin probe incubated 2 h at room temperature, PAGE, chemiluminescent EMSA kit (Beyotime); salt and pH not stated; recombinant protein; label: 5' biotin on both strands
[2] = tested on: BpNAC90 (Betula platyphylla (birch)); test: EMSA; details: shift decreased by increasing unlabeled competitor; EMSA: protein and biotin probe incubated 2 h at room temperature, PAGE, chemiluminescent EMSA kit (Beyotime); salt and pH not stated; recombinant protein; protein details: MBP (pMAL-c5x); label: 5' biotin on both strands

Row | Sequence | binding result [1] | binding result [2]
1 | AACACCAACACCAACACC (double strand) [EMSA-EOMES2 (3x AACACC)] | binds | binds
2 | CACGTGACACGTGACACGTG (double strand) [EMSA-ABRE (3x CACGTG)] | binds | binds
3 | TGTCATGTCATGTCA (double strand) [EMSA-Tgif2 (3x TGTCA)] | binds | binds
